This note sets out measurements from article PMC7092493.

For test [1], the target named is T1, endogenous Codanin-1 (human (endogenous in HeLa)) (UniProt Q8IWY9).
T1 sequence: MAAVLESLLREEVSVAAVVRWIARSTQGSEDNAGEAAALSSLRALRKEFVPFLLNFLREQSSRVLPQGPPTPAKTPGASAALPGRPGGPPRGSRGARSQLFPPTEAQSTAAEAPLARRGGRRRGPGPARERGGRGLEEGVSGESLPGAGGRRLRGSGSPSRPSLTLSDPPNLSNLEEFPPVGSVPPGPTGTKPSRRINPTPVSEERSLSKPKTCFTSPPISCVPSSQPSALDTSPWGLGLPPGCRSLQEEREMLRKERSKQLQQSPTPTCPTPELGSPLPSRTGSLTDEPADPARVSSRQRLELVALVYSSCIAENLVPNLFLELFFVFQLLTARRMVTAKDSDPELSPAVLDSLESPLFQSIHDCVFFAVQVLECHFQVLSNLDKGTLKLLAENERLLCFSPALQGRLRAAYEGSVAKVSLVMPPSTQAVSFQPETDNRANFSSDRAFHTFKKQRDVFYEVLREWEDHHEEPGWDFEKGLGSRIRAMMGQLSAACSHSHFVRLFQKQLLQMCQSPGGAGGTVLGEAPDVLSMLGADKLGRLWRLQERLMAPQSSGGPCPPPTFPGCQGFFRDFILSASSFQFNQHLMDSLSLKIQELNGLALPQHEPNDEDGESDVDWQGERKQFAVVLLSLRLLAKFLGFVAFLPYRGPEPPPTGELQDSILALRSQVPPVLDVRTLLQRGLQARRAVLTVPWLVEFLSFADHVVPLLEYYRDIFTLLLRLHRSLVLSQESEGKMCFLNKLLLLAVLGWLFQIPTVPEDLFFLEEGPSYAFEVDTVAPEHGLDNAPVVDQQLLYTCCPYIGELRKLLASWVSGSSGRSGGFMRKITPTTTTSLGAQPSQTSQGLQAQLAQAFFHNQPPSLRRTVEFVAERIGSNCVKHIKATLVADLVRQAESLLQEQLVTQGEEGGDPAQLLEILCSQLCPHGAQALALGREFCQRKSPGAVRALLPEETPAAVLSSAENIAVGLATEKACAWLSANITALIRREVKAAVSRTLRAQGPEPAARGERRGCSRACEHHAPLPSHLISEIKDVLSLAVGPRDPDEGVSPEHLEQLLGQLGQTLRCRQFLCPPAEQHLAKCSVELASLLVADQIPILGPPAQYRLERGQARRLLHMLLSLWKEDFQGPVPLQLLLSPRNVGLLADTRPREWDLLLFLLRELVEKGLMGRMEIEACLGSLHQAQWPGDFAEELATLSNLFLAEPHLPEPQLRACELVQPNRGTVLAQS
Description: affinity purification with mass spectrometry; immunoprecipitation of endogenous Codanin-1 or overexpressed Flag-tagged Codanin-1 from HeLa lysate on protein A-sepharose with antibody, 4 °C, washes with PBS, MS/MS of the eluate.

Test [2] addresses T2, Flag-tagged Codanin-1 (human) (UniProt Q8IWY9).
T2 sequence: T1 sequence
The test is described as above.

Results are given in words; binding and its absence hold for the method and conditions named. Binding seen in cells or lysates may run through a third protein. A yes stands for co-enrichment or nearness to the bait. Other partners may have been found. For some assays here: Sequences can lack the tags named with a protein.

B1: C15Orf41 (endogenous) (protein, UniProt Q9Y2V0-1 1-281)
chain: MILTKAQYDEIAQCLVSVPPTRQSLRKLKQRFPSQSQATLLSIFSQEYQKHIKRTHAKHHTSEAIESYYQRYLNGVVKNGAAPVLLDLANEVDYAPSLMARLILERFLQEHEETPPSKSIINSMLRDPSQIPDGVLANQVYQCIVNDCCYGPLVDCIKHAIGHEHEVLLRDLLLEKNLSFLDEDQLRAKGYDKTPDFILQVPVAVEGHIIHWIESKASFGDECSHHAYLHDQFWSYWNRFGPGLVIYWYGFIQELDCNRERGILLKACFPTNIVTLCHSIA
For the molecule B1, the binding entry in test [1] and in test [2] was “binds” throughout.
